# Experimental data: PubChem BioAssay AID504847 (National Center for Advancing Translational Sciences (NCATS), 2011)
# Amino acid sequences for entries named in this document (tags omitted). A change or cut given only in a name is not applied to a line headed by its entry.
# UniProt P11473: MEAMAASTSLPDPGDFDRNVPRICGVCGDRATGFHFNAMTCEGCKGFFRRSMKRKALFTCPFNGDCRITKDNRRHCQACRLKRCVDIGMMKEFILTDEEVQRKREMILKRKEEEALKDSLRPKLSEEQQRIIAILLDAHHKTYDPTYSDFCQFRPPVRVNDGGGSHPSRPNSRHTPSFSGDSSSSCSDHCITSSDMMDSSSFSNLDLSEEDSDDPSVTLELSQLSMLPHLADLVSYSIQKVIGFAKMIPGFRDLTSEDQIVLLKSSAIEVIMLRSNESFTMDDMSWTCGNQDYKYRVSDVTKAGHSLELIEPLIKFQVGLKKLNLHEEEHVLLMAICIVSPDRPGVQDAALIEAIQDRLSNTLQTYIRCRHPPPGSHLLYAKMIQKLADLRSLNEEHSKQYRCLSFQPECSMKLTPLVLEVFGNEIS
# The campaign covered roughly 400,000 compounds. About 3,700 (0.93%) were called active. The shares of active, inactive and inconclusive entries below differ from those in the screen. Calls come from the whole dose curve; as a rule, active = well fitted inhibition curve with a large enough effect; inconclusive = small, poorly fitted or top-dose-only effect, or another doubt; inactive = no such curve, though single readings can be large or run the other way. Potencies of inconclusive entries are doubtful fits and often do not repeat.
# Molecular target: Vitamin D3 receptor (Homo sapiens) (UniProt P11473)
# Experiment: Inhibitors of the vitamin D receptor (VDR): qHTS
# Details: VDR-SRC2-3 peptide fluorescence polarization, 2 h; max response, negative = inhibition: stronger effect = lower value
# Summary of the method: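 Signal is fluorescence polarization, reporting how far test compounds block the interaction of VDR with the SRC2-3 coregulator peptide after a 2 h room-temperature incubation.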
# % is set by controls: 0 for no effect and ±100 for the full control effect; potency is the fitted concentration of half-maximal effect.
SMILES,Potency,"max response, negative = inhibition"
COc1cccc(-c2cc(NCCc3c[nH]c4ccc(OC)cc34)ncn2)c1,"inconclusive: 89.1 µM [inhibitor, single point]",–
O=S(=O)(NCc1cccnc1)c1cccc2nsnc12,"inconclusive: 35.5 µM [inhibitor, partial curve, poor fit]",–
COc1ccc(Nc2nc3ccccc3n3c(N)nnc23)cc1,–,inactive: -1.42%
COC(=O)c1ccc(CSc2nnc(SCc3ccc(C(=O)OC)o3)s2)o1,–,inactive: -8.89%
O=C(c1cncc(Br)c1)N1CCN(S(=O)(=O)c2ccccc2C(F)(F)F)CC1,"inconclusive: 28.2 µM [inhibitor, single point]",–
COc1ccc(-c2nn(C)c3sc(C(=O)NCc4ccco4)cc23)cc1OC,–,inactive: 6.31%
CCCCn1c(N)c(N(CCOC)C(=O)c2cc(-c3ccco3)nc3ccccc23)c(=O)[nH]c1=O,–,inactive: -10.4%
Cc1ccc(N(Cc2cc3ccc(C)cc3[nH]c2=O)C(=O)c2ccco2)c(C)c1,"inconclusive: 79.4 µM [inhibitor, single point]",–
Cc1ccc(S(=O)(=O)c2nc(-c3cccs3)oc2N2CCC(C)CC2)cc1,–,inactive: 5.27%
O=C(Nc1nnc(SCCC2OCCO2)s1)C1CC(=O)N(c2ccc(F)cc2)C1 (stereo not given),"inconclusive: 44.7 µM [inhibitor, single point]",–
CCC1CCc2c(sc(NC(=O)c3cnccn3)c2C(N)=O)C1 (stereo not given),"inconclusive: 56.2 µM [inhibitor, partial curve, poor fit]",–
Cc1cc(C)cc(C(=O)NN2CCN(C)CC2)c1,"inconclusive: 39.8 µM [inhibitor, single point]",–
CC1=NOC(=O)/C1=C\c1ccccc1,"inconclusive: 79.4 µM [inhibitor, partial curve, poor fit]",–
Cn1cccc1CNC1CCCCC1,–,inactive: 6.67%
O=C(/C=C/c1cccc([N+](=O)[O-])c1)c1ccccc1,active: 20 µM,–
O=C(/C=C/c1cccc2ccccc12)c1ccncc1,active: 14.1 µM,–
CCN1CCN(C(=O)/C=C/c2ccccc2[N+](=O)[O-])CC1,–,inactive: -8.47%
CCOc1ccccc1/C=C(\C#N)C(=O)Nc1cccc(C(=O)O)c1,"inconclusive: 50.1 µM [inhibitor, partial curve, poor fit]",–
Cc1oncc1C(=S)Nc1ccccc1,–,inactive: -4.42%
Cc1ccc(-c2csc3nc(CSc4nnc(-c5ccc(Cl)cc5)n4C)[nH]c(=O)c23)cc1,–,inactive: -10.4%
COc1ccc(CC2(C)OC(c3ccc(C)c([N+](=O)[O-])c3)=NN2C(C)=O)cc1 (stereo not given),–,inactive: -10.5%
O=C1CCC(C(=O)Nc2ccc([N+](=O)[O-])cc2)N1 (stereo not given),"inconclusive: 100 µM [inhibitor, single point]",–
Nn1c(Cc2ccc(Br)cc2)n[nH]c1=S,active: 89.1 µM,–

# A second format for three compounds above:
SMILES	Potency	max response, negative = inhibition
COc1cccc(-c2cc(NCCc3c[nH]c4ccc(OC)cc34)ncn2)c1	inconclusive: 89.1 µM [inhibitor, single point]	–
CCOc1ccccc1/C=C(\C#N)C(=O)Nc1cccc(C(=O)O)c1	inconclusive: 50.1 µM [inhibitor, partial curve, poor fit]	–
COc1ccc(CC2(C)OC(c3ccc(C)c([N+](=O)[O-])c3)=NN2C(C)=O)cc1 (stereo not given)	–	inactive: -10.5%

# The results go on.

SMILES,Potency,"max response, negative = inhibition"
COc1cc2oc(=O)cc(-c3ccc(-c4ccc(NC(C)=O)cc4)cc3)c2c(OC)c1OC,"inconclusive: 35.5 µM [inhibitor, partial curve, poor fit]",–
CC1=C(C(=O)O)N2C(=O)[C@@H](NC(=O)[C@@H](N)c3ccc(O)cc3)[C@@H]2SC1,"inconclusive: 39.8 µM [inhibitor, single point]",–
COc1cccc(CN2CCN(CC(=O)Nc3ccccc3Cl)CC2)c1,–,inactive: 1.37%
Cc1[nH]n(-c2ccccc2)c(=O)c1N=Nc1c(O)cc(S(=O)(=O)N(C)C)c2ccccc12,–,inactive: 12.6%
CC1CC(O)CC(C)(C)C1 (stereo not given),–,inactive: -4.72%
O=c1cnc2cnc(Oc3ccccc3)nc2n1Cc1cccs1,"inconclusive: 50.1 µM [inhibitor, partial curve, poor fit]",–
COc1ccc(-c2nn(-c3ccccc3)cc2/C=C2/SC(=S)N(CCC(=O)O)C2=O)c(C)c1,"inconclusive: 31.6 µM [inhibitor, single point]",–
COc1ccc(-c2nnc3sc(C(C)N4C(=O)c5ccccc5C4=O)nn23)cc1 (stereo not given),"inconclusive: 56.2 µM [inhibitor, partial curve, poor fit]",–
COc1ccc(N2CC(C(=O)Nc3nnc(C4CCCCC4)s3)CC2=O)cc1 (stereo not given),"inconclusive: 56.2 µM [inhibitor, partial curve, poor fit]",–
Cc1ccc(NN2C(=O)C=C(c3ccc(Cl)cc3)C2=O)cc1,active: 50.1 µM,–
N#CC1=C(S)N(c2ccccc2)C(c2ccc(-c3cccc(Cl)c3)o2)NC1=O (stereo not given),"inconclusive: 35.5 µM [inhibitor, partial curve, poor fit]",–
CCOC(=O)C1=NN(c2ccc([N+](=O)[O-])cc2)CC1C(=O)OC (stereo not given),"inconclusive: 70.8 µM [inhibitor, partial curve]",–
COc1ccccc1C(=O)N/C(=C/c1ccco1)C(=O)Nc1cccc(C(=O)O)c1,–,inactive: -15.2%
CCC(C)NS(=O)(=O)c1ccc(NS(=O)(=O)c2ccccc2[N+](=O)[O-])cc1 (stereo not given),"inconclusive: 79.4 µM [inhibitor, partial curve, poor fit]",–
COc1ccc(N2CSC3=C(C#N)C(c4ccc(OC)c(OC)c4)CC(=O)N3C2)c(OC)c1 (stereo not given),active: 31.6 µM,–
S=C(Nc1ccccc1)Nc1nc2ccccc2n1CCOc1ccccc1,–,inactive: -18%
c1ccc(CNc2cc(-c3ccoc3)ncn2)cc1,active: 12.6 µM,–
COc1ccc(/C=C2\SC(=O)NC2=S)cc1OC,active: 10 µM,–
Cc1ccsc1C1NC(=O)c2c(sc3c2CCCC3)N1 (stereo not given),"inconclusive: 100 µM [inhibitor, single point]",–
Cc1cc(C)cc(N2C(=O)CC(Sc3ccccc3C(=O)O)C2=O)c1 (stereo not given),"inconclusive: 79.4 µM [inhibitor, single point]",–
CCC(C(=O)NCCc1ccc(OC)c(OC)c1OC)n1nc(C)c2sc3ccccc3c2c1=O (stereo not given),–,inactive: -3.78%
C[C@H](NC(=O)C1CC(=O)N(c2ccc3c(c2)OCO3)C1)C(=O)NC1CCCCC1 (stereo not given in full),"inconclusive: 20 µM [inhibitor, partial curve]",–
